Results: PMC8359101
These are yes or no findings as the source states them, for the method shown. In cells and extracts the contact can be indirect. Some entries that bind do so weakly or less than the wild type. Sequences can lack the tags named with a protein.

The chains behind the UniProt entries cited, without tags or fusion partners. Where a name states a change or a piece, a line headed by the entry shows the natural chain unless it says otherwise.
UniProt P09874: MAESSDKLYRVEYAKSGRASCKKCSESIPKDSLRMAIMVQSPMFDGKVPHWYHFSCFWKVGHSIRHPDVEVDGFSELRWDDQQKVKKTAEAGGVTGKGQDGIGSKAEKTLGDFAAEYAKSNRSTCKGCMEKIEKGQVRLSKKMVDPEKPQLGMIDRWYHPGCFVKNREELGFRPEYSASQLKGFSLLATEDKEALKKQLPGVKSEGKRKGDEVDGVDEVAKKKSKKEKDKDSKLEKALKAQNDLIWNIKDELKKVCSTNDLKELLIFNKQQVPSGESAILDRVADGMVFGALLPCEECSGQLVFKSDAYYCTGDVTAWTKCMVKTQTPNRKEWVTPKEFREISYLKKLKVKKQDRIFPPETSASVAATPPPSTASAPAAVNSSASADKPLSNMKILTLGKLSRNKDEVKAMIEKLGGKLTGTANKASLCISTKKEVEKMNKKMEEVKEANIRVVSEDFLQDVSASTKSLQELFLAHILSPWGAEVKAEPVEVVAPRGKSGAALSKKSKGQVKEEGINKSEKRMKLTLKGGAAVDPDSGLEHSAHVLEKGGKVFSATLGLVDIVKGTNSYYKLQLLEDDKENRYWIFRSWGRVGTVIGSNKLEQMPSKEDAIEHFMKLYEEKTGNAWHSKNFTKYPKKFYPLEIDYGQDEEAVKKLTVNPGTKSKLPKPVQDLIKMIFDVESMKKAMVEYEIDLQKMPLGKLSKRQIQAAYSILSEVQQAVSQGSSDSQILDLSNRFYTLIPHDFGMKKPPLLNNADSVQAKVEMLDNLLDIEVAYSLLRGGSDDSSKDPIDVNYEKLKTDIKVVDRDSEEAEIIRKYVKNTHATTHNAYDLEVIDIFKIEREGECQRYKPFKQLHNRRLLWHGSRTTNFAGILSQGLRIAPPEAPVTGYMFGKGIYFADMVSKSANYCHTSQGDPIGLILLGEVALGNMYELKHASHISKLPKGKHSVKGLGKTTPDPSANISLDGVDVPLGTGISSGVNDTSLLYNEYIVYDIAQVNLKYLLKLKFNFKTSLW

Tests used:
[1] = target: T1, DIDO1-529aa with Flag tag (DIDO1-529aa-Flag), the 529 aa protein encoded by circDIDO1 (human) (UniProt Q9BTC0); experiment: co-IP; DIDO1-529aa-Flag vector co-transfected with HA-tagged PARP1 deletions into 293 T cells, Co-IP (Fig. 4c)
T1 sequence: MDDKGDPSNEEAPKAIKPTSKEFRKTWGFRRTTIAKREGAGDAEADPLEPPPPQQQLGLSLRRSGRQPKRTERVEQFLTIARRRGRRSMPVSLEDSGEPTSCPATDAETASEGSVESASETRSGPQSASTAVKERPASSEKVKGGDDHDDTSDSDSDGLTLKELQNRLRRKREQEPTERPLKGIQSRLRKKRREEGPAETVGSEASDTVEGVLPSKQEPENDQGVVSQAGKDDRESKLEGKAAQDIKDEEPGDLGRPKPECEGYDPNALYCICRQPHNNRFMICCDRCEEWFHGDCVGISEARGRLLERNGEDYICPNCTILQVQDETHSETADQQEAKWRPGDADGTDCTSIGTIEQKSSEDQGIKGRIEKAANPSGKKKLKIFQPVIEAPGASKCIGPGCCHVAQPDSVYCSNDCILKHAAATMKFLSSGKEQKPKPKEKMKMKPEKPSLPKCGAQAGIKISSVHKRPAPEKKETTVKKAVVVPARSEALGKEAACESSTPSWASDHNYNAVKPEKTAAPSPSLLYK

[2] = target: T1, DIDO1-529aa with Flag tag (DIDO1-529aa-Flag), the 529 aa protein encoded by circDIDO1 (human); experiment: co-IP; Co-IP and Western blot of DIDO1-529aa and PARP1 (Fig. 4a); antibody cross-linked to magnetic beads with DSS, lysate at 4 °C overnight; cells not given

Substance | binding [1] | binding [2]
HA-tagged PARP1 deletion 1-372 aa (from UniProt P09874 1-372) (domain or fragment) | binds | –
HA-tagged PARP1 deletion 525-1014 aa (from UniProt P09874 525-1014) (domain or fragment) | binds | –
poly (ADP-ribose) polymerases-1 (PARP1) (from UniProt P09874 1-1014) (enzyme) | – | binds
